Source: publication PMC5673645
No constants are given. Whether binding was seen depends on the method and setting. In cells and extracts the contact can be indirect. Some binding calls cover weakened binding; strength is not graded here. For some assays here: Tags and fused reporters may be left off the sequences shown.

Legend:
[1] = molecular target: T1, FAR-RED … 219/JASMONATE … 1 (FIN219/JAR1), endogenous in wild-type Col-0 seedlings (Arabidopsis thaliana (endogenous in Col-0 seedlings)) (UniProt Q9SKE2); test: co-IP; 2 mg protein extract of Col-0 (Wt), fin219-2 and pGR219 seedlings grown under simulated shade, immunoprecipitated with FIN219 monoclonal antibodies; beads 4°C for 4 h, washed three times with grinding buffer (50 mM Tris-HCl pH 5.7, 150 mM NaCl, 10 mM MgCl2, 0.1% BSA, 0.1% NP-40, MG132); blots probed with FIN219 and PHYA monoclonal and COP1 polyclonal antibodies
T1 sequence: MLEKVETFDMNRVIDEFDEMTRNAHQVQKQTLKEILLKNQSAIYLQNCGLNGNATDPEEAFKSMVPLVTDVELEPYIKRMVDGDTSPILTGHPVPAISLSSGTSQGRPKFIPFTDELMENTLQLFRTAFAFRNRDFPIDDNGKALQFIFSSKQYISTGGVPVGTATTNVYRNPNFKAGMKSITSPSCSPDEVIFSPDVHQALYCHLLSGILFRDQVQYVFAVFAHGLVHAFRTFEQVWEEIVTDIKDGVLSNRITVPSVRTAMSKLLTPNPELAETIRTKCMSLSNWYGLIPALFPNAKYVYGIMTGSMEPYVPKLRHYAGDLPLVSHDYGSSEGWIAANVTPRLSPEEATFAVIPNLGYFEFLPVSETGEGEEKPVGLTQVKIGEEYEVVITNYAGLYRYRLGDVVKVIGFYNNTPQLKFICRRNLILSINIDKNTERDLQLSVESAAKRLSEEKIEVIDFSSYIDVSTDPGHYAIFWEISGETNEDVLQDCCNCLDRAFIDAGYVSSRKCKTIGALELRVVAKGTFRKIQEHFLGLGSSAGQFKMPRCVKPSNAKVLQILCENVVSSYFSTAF

[2] = molecular target: T2, FIN219 overexpressed from the glucocorticoid-inducible transgene pGR:FIN219 (line pGR219, fin219-2 background) (Arabidopsis thaliana) (UniProt Q9SKE2); test: as above
T2 sequence: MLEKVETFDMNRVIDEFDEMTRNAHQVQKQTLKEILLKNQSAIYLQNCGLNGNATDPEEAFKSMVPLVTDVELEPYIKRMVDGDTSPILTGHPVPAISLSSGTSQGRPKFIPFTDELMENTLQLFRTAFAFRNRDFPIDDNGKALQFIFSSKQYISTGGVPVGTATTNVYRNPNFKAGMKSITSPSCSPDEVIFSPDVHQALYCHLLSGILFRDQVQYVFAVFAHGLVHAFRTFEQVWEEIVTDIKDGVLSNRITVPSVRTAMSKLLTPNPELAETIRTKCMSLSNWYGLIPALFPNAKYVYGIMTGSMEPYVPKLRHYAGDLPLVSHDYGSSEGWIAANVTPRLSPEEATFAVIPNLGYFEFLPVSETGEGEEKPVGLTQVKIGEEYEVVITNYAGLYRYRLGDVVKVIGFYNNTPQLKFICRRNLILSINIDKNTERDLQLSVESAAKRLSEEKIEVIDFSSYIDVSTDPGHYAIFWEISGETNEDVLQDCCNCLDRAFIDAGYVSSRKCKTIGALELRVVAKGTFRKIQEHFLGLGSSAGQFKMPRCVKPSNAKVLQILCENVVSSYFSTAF

- binding [1]: binds
- binding [2]: binds
B1: phytochrome A (phyA) (receptor, UniProt P14712 1-1122)
chain: MSGSRPTQSSEGSRRSRHSARIIAQTTVDAKLHADFEESGSSFDYSTSVRVTGPVVENQPPRSDKVTTTYLHHIQKGKLIQPFGCLLALDEKTFKVIAYSENASELLTMASHAVPSVGEHPVLGIGTDIRSLFTAPSASALQKALGFGDVSLLNPILVHCRTSAKPFYAIIHRVTGSIIIDFEPVKPYEVPMTAAGALQSYKLAAKAITRLQSLPSGSMERLCDTMVQEVFELTGYDRVMAYKFHEDDHGEVVSEVTKPGLEPYLGLHYPATDIPQAARFLFMKNKVRMIVDCNAKHARVLQDEKLSFDLTLCGSTLRAPHSCHLQYMANMDSIASLVMAVVVNEEDGEGDAPDATTQPQKRKRLWGLVVCHNTTPRFVPFPLRYACEFLAQVFAIHVNKEVELDNQMVEKNILRTQTLLCDMLMRDAPLGIVSQSPNIMDLVKCDGAALLYKDKIWKLGTTPSEFHLQEIASWLCEYHMDSTGLSTDSLHDAGFPRALSLGDSVCGMAAVRISSKDMIFWFRSHTAGEVRWGGAKHDPDDRDDARRMHPRSSFKAFLEVVKTRSLPWKDYEMDAIHSLQLILRNAFKDSETTDVNTKVIYSKLNDLKIDGIQELEAVTSEMVRLIETATVPILAVDSDGLVNGWNTKIAELTGLSVDEAIGKHFLTLVEDSSVEIVKRMLENALEGTEEQNVQFEIKTHLSRADAGPISLVVNACASRDLHENVVGVCFVAHDLTGQKTVMDKFTRIEGDYKAIIQNPNPLIPPIFGTDEFGWCTEWNPAMSKLTGLKREEVIDKMLLGEVFGTQKSCCRLKNQEAFVNLGIVLNNAVTSQDPEKVSFAFFTRGGKYVECLLCVSKKLDREGVVTGVFCFLQLASHELQQALHVQRLAERTAVKRLKALAYIKRQIRNPLSGIMFTRKMIEGTELGPEQRRILQTSALCQKQLSKILDDSDLESIIEGCLDLEMKEFTLNEVLTASTSQVMMKSNGKSVRITNETGEEVMSDTLYGDSIRLQQVLADFMLMAVNFTPSGGQLTVSASLRKDQLGRSVHLANLEIRLTHTGAGIPEFLLNQMFGTEEDVSEEGLSLMVSRKLVKLMNGDVQYLRQAGKSSFIITAELAAANK
